Assay results reported in the supplement of paper PMC3334620.
The full ranking holds about 33,000 sequences; the median of “E-score (-0.5 to 0.5)” is about -8e-05, and the highest 2% start at about 0.23. The list shows a part of the results.

The sequences below were run against T1, Nrg2 (UniProt P38082) (assay: PBM E-score (8-mer binding enrichment) (E-score (-0.5 to 0.5)); higher = stronger / more preferred TF binding). Conditions: protein concentration: 100 nM; construct: GST-full length.
T1 sequence: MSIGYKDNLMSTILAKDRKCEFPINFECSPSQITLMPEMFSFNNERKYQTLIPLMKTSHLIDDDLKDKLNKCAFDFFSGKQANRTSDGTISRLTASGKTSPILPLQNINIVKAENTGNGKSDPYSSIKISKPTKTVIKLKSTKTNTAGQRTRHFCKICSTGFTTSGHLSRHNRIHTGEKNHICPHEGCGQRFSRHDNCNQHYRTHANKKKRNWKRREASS
How it was run: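 Universal all-10-mer Agilent arrays, fresh or stripped once, were converted to double-stranded form by primer extension. GST-tagged yeast transcription factors from PURExpress in vitro transcription/translation, full-length or DNA-binding domain only, were applied at about 100-200 nM and detected with fluorescent anti-GST. After masliner normalisation, the Universal PBM Analysis Suite scored each ungapped eight-base word together with its reverse complement by E-score.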

Sequence	PBM E-score
CCATGAAC	0.161
ACGTTCGC	-0.233
ACTGGCTC	-0.179
AATCAACG	-0.0167
CAAAAATA	0.204
GGTTGTAC	0.13
GTCGAAAC	0.0163
ATGAACGC	0.179
GCCACGCC	-0.108
ATAGCGTC	-0.091
CTACAGGC	-0.0785
CACTTCGA	0.0548
ACATGTTG	0.1
ACATTTCC	0.0865
GCGAGGGA	-0.135
CCAAATCC	-0.0777
GATTCAGC	-0.0365
GCCTAGAA	-0.012
CAATAATG	-0.0795
TGAAGAAA	0.0181
GAAGACAA	-0.039
TCCTATAA	-0.0317
CAGACTGG	-0.0929
CCACATCC	0.0994

Exported in markdown: part of the list above

| Sequence | PBM E-score |
| --- | --- |
| GGTTGTAC | 0.13 |
| GCGAGGGA | -0.135 |
| GCCTAGAA | -0.012 |
| CAATAATG | -0.0795 |
| GAAGACAA | -0.039 |
| TCCTATAA | -0.0317 |
| CAGACTGG | -0.0929 |

(cont.)

Sequence	PBM E-score
CTATCCGA	-0.04
TGGGGAAA	0.189
CGGTCCTA	-0.314
ACATTGCT	-0.0115
CTTGTTGA	0.0683
AATTCTAA	0.0749
AAACATCG	-0.163
CAGCATAA	0.127
CCTAAATC	0.157
CATAAAAA	0.195
GGATTCAA	-0.0545
GACGAGGC	-0.141
TCTTCCAA	-0.147
TAGCCACA	0.0544
AACACCTT	0.0911
AGTAGACT	-0.0196
GACGTTCC	-0.00829
ATAGGTTA	-0.00463
GAATACTA	0.216
CAGGAGAA	0.106
AATCCGTG	-0.217
CGTGCGGA	-0.0446
CTAGGTTC	-0.107
CACAGATG	0.0643

Sequence	PBM E-score
GGTACACA	-0.0486
CCTTATCA	0.213
GAACCGGC	-0.079
CCTGTGAG	-0.0294
ACACCGCG	-0.0555
ACATTCTC	0.094
ACCCAGAC	0.0112
GCCCATCC	-0.164
AATCGGCT	-0.0361
CTTATTAA	0.196
CAAAGTTC	0.027
AGTATTCG	0.117
CAGGGCAG	0.038
CATTGTGC	0.0147
TACTAACA	0.172
CGGCGGCC	-0.198
TATAATGA	0.144
CAGGAATC	0.124
CGTATCCC	-0.22
CGCACCAG	0.0295
GGTTCAAA	0.0475
ATTAAGTG	0.0532
AGAACCAG	-0.0636
GCGCCACC	-0.162

Sequence	PBM E-score
GCGCGGGA	0.0263
ATTTCATC	0.198
GCGTTACA	0.027
GCAGCAGA	-0.134
ATCTGTGG	-0.0471
GCCCTGTA	0.208
AGTACTTC	0.157
GTTTTCTA	-0.0625
ATAATCCG	0.0659
GCAAAAAA	0.223
ATTCCGGA	0.228
GAAAAAGA	0.165
CCTTGGCC	-0.25
CAGAGGAG	-0.208
CAACGCTC	-0.0396
GCGTTTCC	-0.0401
AGTCGTAG	-0.0872
GCATATTA	0.133
GTACGTCA	-0.102
AGCGTGAT	0.067
ATGATTCG	0.0961
GAGTTCTA	-0.0695
